Laboratory results taken from publication PMC8753592, “Long-acting capsid inhibitor protects macaques from repeat SHIV challenges” (Nature, 2021).
Values joined by “and” are separate entries in the source; they are usually repeats but may differ in a detail not shown here. Identical values can stand only once. This continues a long series; more values of the same kind are listed elsewhere.

Test system: SHIV-SF162P3
Assay: Repeated escalating-dose rectal SHIV challenge study (plasma viraemia by gag RT-qPCR)
Type: in vivo, rhesus macaques of Indian origin
Description: For the challenge study, 24 outbred rhesus macaques of Indian origin were assigned to the three study groups with even sex and weight distributions. All animals were housed at Alpha Genesis (Yemassee, SC), and all procedures were conducted in compliance with all relevant local, state and federal regulations and were approved by the Alpha Genesis IACUC. […] The injection sites were monitored daily by veterinary staff for 3 days. Beginning in week 1, animals in all three groups were challenged by the intrarectal route with 1 ml of RPMI containing the specified dilution of a 3.62 × 10^3 TCID50 SHIV-SF162P3 stock. At each respective time point, the challenges were performed on the same day, using the same virus stock and inoculation method across the three groups. Whole blood was collected and processed into plasma and PBMCs as necessary to assess routine haematology, clinical chemistry, viral load and serology as well as for bioanalysis of drug levels. The animals were considered to be protected if they remained SHIV negative by plasma PCR assay and seronegative by enzyme immunoassay throughout the 15-week challenge phase and the 9-week follow-up.
RNA was extracted from rhesus macaque plasma using a QIAcube high-throughput instrument and an IndiSpin QIAcube HT Pathogen kit (Qiagen). RNA standards using the SIV gag sequence were generated by AmpliCap-Max T7 High-Yield Message Maker kit (Cell Script) and were purified using an RNA Clean and Concentrator kit (Zymo Research). Log dilutions of the RNA were included with each RT–qPCR assay. Reverse transcription of standards and samples was performed using a Superscript III VILO kit (Invitrogen). qPCR was performed using forward primer 5′-[…]-3′, reverse primer 5′-[…]-3′ and fluorescently labelled primer 5′-[…]-3′ on a Quantstudio 6 Flex system (Applied Biosystems). The assay LOD was 200 copies gag per ml.
Protection against acquired infection was analysed using Cox proportional hazard regression models based on the exact partial likelihood for discrete time expressed in weeks, which explicitly accounts for the time-varying viral challenge dose in the model. The hazard ratios with 95% confidence intervals for per-exposure relative reductions in acquisition risk were calculated for the GS-CA1-treated groups, and the results were compared with those for the vehicle-treated control group. Comparisons were considered statistically significant at a two-sided alpha level of 0.05 (P < 0.05). Statistical analyses were performed using GraphPad Prism version 8.1.2, SAS version 9.4 and R Studio software version 4.0.5.

Compound: CC(C)(C#Cc1ccc(-c2ccc(Cl)c3c(NS(=O)(=O)C4CC4)nn(CC(F)F)c23)c([C@H](Cc2cc(F)cc(F)c2)NC(=O)Cn2nc(C(F)F)c3c2C(F)(F)[C@@H]2C[C@H]32)n1)S(C)(=O)=O [GS-CA1]
- Plasma SHIV viral load (GS-CA1 150mg/kg, Week 1, individual animals): 200 gag RNA copies per ml
- Plasma SHIV viral load (GS-CA1 150mg/kg, Week 2, individual animals): 200 gag RNA copies per ml
- Plasma SHIV viral load (GS-CA1 150mg/kg, Week 3, individual animals): 200 gag RNA copies per ml
- Plasma SHIV viral load (GS-CA1 150mg/kg, Week 4, individual animals): 200 gag RNA copies per ml
- Plasma SHIV viral load (GS-CA1 150mg/kg, Week 5, individual animals): 200 gag RNA copies per ml
- Plasma SHIV viral load (GS-CA1 150mg/kg, Week 6, individual animals): 200 gag RNA copies per ml
- Plasma SHIV viral load (GS-CA1 150mg/kg, Week 7, individual animals): 200 gag RNA copies per ml
- Plasma SHIV viral load (GS-CA1 150mg/kg, Week 8, individual animals): 200 gag RNA copies per ml
- Plasma SHIV viral load (GS-CA1 150mg/kg, Week 9, individual animals): 200 gag RNA copies per ml
- Plasma SHIV viral load (GS-CA1 150mg/kg, Week 10, individual animals): 200 gag RNA copies per ml
- Plasma SHIV viral load (GS-CA1 150mg/kg, Week 11, individual animals, 150 mg/kg): 200 gag RNA copies per ml and 2317 gag RNA copies per ml
- Plasma SHIV viral load (GS-CA1 150mg/kg, Week 12, individual animals, 150 mg/kg): 200 gag RNA copies per ml and 1251253 gag RNA copies per ml
- Plasma SHIV viral load (GS-CA1 150mg/kg, Week 13, individual animals, 150 mg/kg): 200 gag RNA copies per ml and 4495324 gag RNA copies per ml and 15543 gag RNA copies per ml
- Plasma SHIV viral load (GS-CA1 150mg/kg, Week 14, individual animals, 150 mg/kg): 200 gag RNA copies per ml and 192698 gag RNA copies per ml and 302527 gag RNA copies per ml and 14481 gag RNA copies per ml
- Plasma SHIV viral load (GS-CA1 150mg/kg, Week 15, individual animals, 150 mg/kg): 200 gag RNA copies per ml and 1636073 gag RNA copies per ml and 41252 gag RNA copies per ml and 436449 gag RNA copies per ml
- Plasma SHIV viral load (GS-CA1 150mg/kg, Week 16, individual animals, 150 mg/kg): 43433 gag RNA copies per ml and 200 gag RNA copies per ml and 144532 gag RNA copies per ml and 37186 gag RNA copies per ml and 15508 gag RNA copies per ml and 62513 gag RNA copies per ml
- Plasma SHIV viral load (GS-CA1 150mg/kg, Week 17, individual animals, 150 mg/kg): 28104 gag RNA copies per ml and 200 gag RNA copies per ml and 128422 gag RNA copies per ml and 4020 gag RNA copies per ml and 5872 gag RNA copies per ml and 1974 gag RNA copies per ml and 76901 gag RNA copies per ml
- Plasma SHIV viral load (GS-CA1 150mg/kg, Week 18, individual animals, 150 mg/kg): 8535 gag RNA copies per ml and 200 gag RNA copies per ml and 144695 gag RNA copies per ml and 18625 gag RNA copies per ml and 13017 gag RNA copies per ml and 2250 gag RNA copies per ml and 14905 gag RNA copies per ml
- Plasma SHIV viral load (GS-CA1 150mg/kg, Week 19, individual animals, 150 mg/kg): 2197 gag RNA copies per ml and 200 gag RNA copies per ml and 23783 gag RNA copies per ml and 733 gag RNA copies per ml and 4607 gag RNA copies per ml and 1586 gag RNA copies per ml and 872 gag RNA copies per ml
- Plasma SHIV viral load (GS-CA1 150mg/kg, Week 20, individual animals, 150 mg/kg): 200 gag RNA copies per ml and 533 gag RNA copies per ml and 294 gag RNA copies per ml and 1229 gag RNA copies per ml
- Plasma SHIV viral load (GS-CA1 150mg/kg, Week 21, individual animals, 150 mg/kg): 200 gag RNA copies per ml and 8674 gag RNA copies per ml and 2199 gag RNA copies per ml
- Plasma SHIV viral load (GS-CA1 150mg/kg, Week 22, individual animals, 150 mg/kg): 200 gag RNA copies per ml and 2557 gag RNA copies per ml and 493 gag RNA copies per ml
- Plasma SHIV viral load (GS-CA1 150mg/kg, Week 23, individual animals, 150 mg/kg): 200 gag RNA copies per ml and 1150 gag RNA copies per ml and 1806 gag RNA copies per ml and 218 gag RNA copies per ml
- Plasma SHIV viral load (GS-CA1 150mg/kg, Week 24, individual animals, 150 mg/kg): 200 gag RNA copies per ml and 724 gag RNA copies per ml and 1367 gag RNA copies per ml
- Plasma SHIV viral load (GS-CA1 300mg/kg group, Week 21, individual animals, 300 mg/kg): 61496 gag RNA copies per ml
- Plasma SHIV viral load (GS-CA1 300mg/kg group, Week 22, individual animals, 300 mg/kg): 30155 gag RNA copies per ml
- Plasma SHIV viral load (GS-CA1 300mg/kg group, Week 23, individual animals, 300 mg/kg): 50155 gag RNA copies per ml
- Plasma SHIV viral load (GS-CA1 300mg/kg group, Week 24, individual animals, 300 mg/kg): 19362 gag RNA copies per ml
- Plasma SHIV viral load (GS-CA1 300mg/kg, Week 1, individual animals): 200 gag RNA copies per ml
- Plasma SHIV viral load (GS-CA1 300mg/kg, Week 2, individual animals): 200 gag RNA copies per ml
- Plasma SHIV viral load (GS-CA1 300mg/kg, Week 3, individual animals): 200 gag RNA copies per ml
- Plasma SHIV viral load (GS-CA1 300mg/kg, Week 4, individual animals): 200 gag RNA copies per ml
- Plasma SHIV viral load (GS-CA1 300mg/kg, Week 5, individual animals): 200 gag RNA copies per ml
- Plasma SHIV viral load (GS-CA1 300mg/kg, Week 6, individual animals): 200 gag RNA copies per ml
- Plasma SHIV viral load (GS-CA1 300mg/kg, Week 7, individual animals): 200 gag RNA copies per ml
- Plasma SHIV viral load (GS-CA1 300mg/kg, Week 8, individual animals): 200 gag RNA copies per ml
- Plasma SHIV viral load (GS-CA1 300mg/kg, Week 9, individual animals): 200 gag RNA copies per ml
- Plasma SHIV viral load (GS-CA1 300mg/kg, Week 10, individual animals): 200 gag RNA copies per ml
- Plasma SHIV viral load (GS-CA1 300mg/kg, Week 11, individual animals): 200 gag RNA copies per ml
- Plasma SHIV viral load (GS-CA1 300mg/kg, Week 12, individual animals): 200 gag RNA copies per ml
- Plasma SHIV viral load (GS-CA1 300mg/kg, Week 13, individual animals): 200 gag RNA copies per ml
- Plasma SHIV viral load (GS-CA1 300mg/kg, Week 14, individual animals): 200 gag RNA copies per ml
- Plasma SHIV viral load (GS-CA1 300mg/kg, Week 15, individual animals): 200 gag RNA copies per ml
- Plasma SHIV viral load (GS-CA1 300mg/kg, Week 16, individual animals): 200 gag RNA copies per ml
- Plasma SHIV viral load (GS-CA1 300mg/kg, Week 17, individual animals, 300 mg/kg): 9063 gag RNA copies per ml and 13193 gag RNA copies per ml and 200 gag RNA copies per ml and 13143 gag RNA copies per ml
- Plasma SHIV viral load (GS-CA1 300mg/kg, Week 18, individual animals, 300 mg/kg): 200 gag RNA copies per ml and 6116 gag RNA copies per ml and 1633235 gag RNA copies per ml
- Plasma SHIV viral load (GS-CA1 300mg/kg, Week 19, individual animals, 300 mg/kg): 200 gag RNA copies per ml and 123639 gag RNA copies per ml
- Plasma SHIV viral load (GS-CA1 300mg/kg, Week 20, individual animals, 300 mg/kg): 200 gag RNA copies per ml and 17958 gag RNA copies per ml
- Plasma SHIV viral load (GS-CA1 300mg/kg, Week 21, individual animals, 300 mg/kg): 200 gag RNA copies per ml and 61496 gag RNA copies per ml
- Plasma SHIV viral load (GS-CA1 300mg/kg, Week 22, individual animals, 300 mg/kg): 200 gag RNA copies per ml and 30155 gag RNA copies per ml
- Plasma SHIV viral load (GS-CA1 300mg/kg, Week 23, individual animals, 300 mg/kg): 200 gag RNA copies per ml and 50155 gag RNA copies per ml
- Plasma SHIV viral load (GS-CA1 300mg/kg, Week 24, individual animals, 300 mg/kg): 200 gag RNA copies per ml and 19362 gag RNA copies per ml
